Article PMC5766157
No constants are given. Whether binding was seen depends on the method and setting. Binding seen in cells or lysates may run through a third protein. Some results given as binding are weak or reduced against the parent protein; the word gives no strength. For some of these results: Sequences can lack the tags named with a protein.

The chains behind the UniProt entries cited, without tags or fusion partners.
UniProt P13864: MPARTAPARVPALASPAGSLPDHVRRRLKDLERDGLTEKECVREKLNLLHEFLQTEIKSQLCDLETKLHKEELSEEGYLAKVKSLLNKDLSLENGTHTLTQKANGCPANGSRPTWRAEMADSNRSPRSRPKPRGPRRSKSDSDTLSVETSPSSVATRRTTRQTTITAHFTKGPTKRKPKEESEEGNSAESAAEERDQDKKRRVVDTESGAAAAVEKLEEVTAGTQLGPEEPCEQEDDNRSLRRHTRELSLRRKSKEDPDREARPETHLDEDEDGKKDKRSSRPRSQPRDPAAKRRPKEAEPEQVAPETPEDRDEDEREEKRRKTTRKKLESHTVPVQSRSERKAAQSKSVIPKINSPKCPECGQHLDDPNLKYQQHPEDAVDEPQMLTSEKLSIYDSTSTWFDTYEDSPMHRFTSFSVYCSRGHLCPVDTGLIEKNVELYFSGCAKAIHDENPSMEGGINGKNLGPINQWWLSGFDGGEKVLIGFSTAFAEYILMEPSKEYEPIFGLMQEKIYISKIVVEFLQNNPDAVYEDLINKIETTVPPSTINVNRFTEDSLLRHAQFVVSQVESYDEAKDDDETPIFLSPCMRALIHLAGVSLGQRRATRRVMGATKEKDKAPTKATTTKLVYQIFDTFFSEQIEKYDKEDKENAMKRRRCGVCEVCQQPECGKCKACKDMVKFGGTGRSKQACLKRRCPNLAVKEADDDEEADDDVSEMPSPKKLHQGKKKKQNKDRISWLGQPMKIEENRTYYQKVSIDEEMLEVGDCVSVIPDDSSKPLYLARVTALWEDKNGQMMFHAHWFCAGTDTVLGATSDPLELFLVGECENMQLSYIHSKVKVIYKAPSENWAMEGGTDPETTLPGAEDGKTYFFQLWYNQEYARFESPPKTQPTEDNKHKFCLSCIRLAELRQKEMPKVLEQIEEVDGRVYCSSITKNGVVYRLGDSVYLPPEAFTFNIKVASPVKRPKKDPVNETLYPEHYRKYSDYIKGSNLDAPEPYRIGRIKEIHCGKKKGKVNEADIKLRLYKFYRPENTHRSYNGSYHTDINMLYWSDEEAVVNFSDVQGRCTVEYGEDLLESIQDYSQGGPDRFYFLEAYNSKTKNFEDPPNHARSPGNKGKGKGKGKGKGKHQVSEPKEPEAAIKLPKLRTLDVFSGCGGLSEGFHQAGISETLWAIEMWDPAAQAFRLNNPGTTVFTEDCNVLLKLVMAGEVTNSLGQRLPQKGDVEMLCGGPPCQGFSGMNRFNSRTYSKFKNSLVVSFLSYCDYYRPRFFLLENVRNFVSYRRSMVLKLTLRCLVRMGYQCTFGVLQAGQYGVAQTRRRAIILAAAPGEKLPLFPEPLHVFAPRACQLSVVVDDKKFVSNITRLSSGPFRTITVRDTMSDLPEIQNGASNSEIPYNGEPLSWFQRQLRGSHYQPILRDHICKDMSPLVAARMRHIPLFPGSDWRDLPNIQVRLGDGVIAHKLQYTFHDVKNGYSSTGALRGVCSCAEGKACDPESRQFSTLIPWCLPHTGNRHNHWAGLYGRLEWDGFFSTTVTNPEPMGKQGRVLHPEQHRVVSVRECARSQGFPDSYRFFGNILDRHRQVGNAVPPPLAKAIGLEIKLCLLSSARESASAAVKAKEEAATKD

How the values were obtained:
[1] = biological target: FLAG-c-myc epitope-tagged DNMT1 (DNA methyltransferase 1) from Dnmt1^Tag/+ ES cells (mouse (endogenous in ES cells)) (UniProt P13864); test: co-IP; nuclear extracts of Dnmt1^Tag/+ ES cells prepared with an engineered universal nuclease that digested both DNA and RNA
[2] = biological target: FLAG-c-myc epitope-tagged DNMT1 (DNA methyltransferase 1) from Dnmt1^Tag/+ ES cells (mouse (endogenous in ES cells)) (UniProt P13864); test: co-IP; anti-FLAG M2 magnetic beads on sonicated ES cell lysates (20 mM Tris-HCl pH 7.4, 200 mM NaCl, 2.5 mM MgCl2, 0.05% Tween-20), then western blot
[3] = biological target: epitope-tagged DNMT3B from Dnmt3B^Tag/+ ES cells (mouse (endogenous in ES cells)) (UniProt O88509); test: as above
[4] = biological target: T1, epitope-tagged UHRF1 from Uhrf1^Tag/+ ES cells (mouse (endogenous in ES cells)) (UniProt Q8VDF2); test: as above
T1 sequence: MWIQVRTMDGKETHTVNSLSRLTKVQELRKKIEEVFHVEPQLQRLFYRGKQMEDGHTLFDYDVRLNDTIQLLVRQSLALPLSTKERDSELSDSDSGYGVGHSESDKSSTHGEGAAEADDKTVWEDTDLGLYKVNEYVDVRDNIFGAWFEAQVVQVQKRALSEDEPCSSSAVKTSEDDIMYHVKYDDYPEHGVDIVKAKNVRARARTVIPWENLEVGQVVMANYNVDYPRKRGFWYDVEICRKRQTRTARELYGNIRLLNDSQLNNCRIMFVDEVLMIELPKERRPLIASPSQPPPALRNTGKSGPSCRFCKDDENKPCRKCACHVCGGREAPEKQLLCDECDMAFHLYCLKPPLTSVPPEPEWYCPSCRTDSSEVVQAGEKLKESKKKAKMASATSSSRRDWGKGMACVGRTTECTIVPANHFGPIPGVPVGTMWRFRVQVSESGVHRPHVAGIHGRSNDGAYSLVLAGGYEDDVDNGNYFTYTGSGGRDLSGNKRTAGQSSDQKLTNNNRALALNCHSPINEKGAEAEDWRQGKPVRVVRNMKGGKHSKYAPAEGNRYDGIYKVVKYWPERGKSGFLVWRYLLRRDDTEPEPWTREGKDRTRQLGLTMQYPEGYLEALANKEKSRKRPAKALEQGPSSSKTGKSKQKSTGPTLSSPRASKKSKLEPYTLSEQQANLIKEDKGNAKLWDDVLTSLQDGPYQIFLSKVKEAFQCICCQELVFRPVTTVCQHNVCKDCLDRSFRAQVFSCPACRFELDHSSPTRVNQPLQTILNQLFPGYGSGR

B1: DROSHA (Class 2 RNase III enzyme, Microprocessor component) (enzyme, UniProt Q5HZJ0 1-1373)
chain: MQGNTCHRMSYHPGRGCPRGRGGHGARPSAPAFRPQNLRLLHPQQPPAQYQYEPPSAPSSSYSNSQAPSFMPPRPDFVPYPPPAAPSAQGPLPPCPVRPPYPNHQMRHPFPVPPCFPPMPPPMPCPNNPPASGAPPGQGTFPFMVPPPSMPHPPPPPVMPQQVNYQYPPGYSHSFPPPGFNSYQNNSSSFPPSANSSSTPHFRHLPPYSLPKAQNERRSPERLKHYDDHRHRDHSHGRGERHRSLERRERGRSPERRRPESRYRSDYDRGRTPPPRHRSYERSRERDRERHRHREARRSPSLERSYKKEYKRSGRSYALPVAPEPAGCTPELPGEMIKTTESWAPPPENVNHRSPSREKKRARWEEEKDRWSDSQGSGKEKNYTSIKEKEAEEVPPEKTEEEEEELLKPVWIRCTHSESYYSSDPMDQVGDSTVVGTSRLRDLYDKFEEELGNRQEKAKAARPPWEPPKTKLDEDLESSSESECETDDDSTCSSSSDSEVFDVIAEIKRKKAHPDRLHDELWYNDPGQMNDGPLCKCSAKARRTGIRHSIYPGEEAIKPCRPMTNNAGRLFHYRITVSPPTNFLTDRPTVIEYDDHEYIFEGFSMFAHAPLTNIPLCKVIRFNIDYTIHFIEEMMPENFCVKGLELFSLFLFRDILELYDWNLKGPLFEDSPPCCPRFHFMPRFVRFLPDGGKEVLSMHQILLYLLRCSKALVPEEEIANMLQWEELEWQKYAEECKGMIVTNPGTKPSSVRIDQLDREQFNPEVITFPIIVHFGIRPAQLSYAGDPQYQKLWKSYVKLRHLLANSPKVKQTDKQKLAQREEALQKIRQKNTMRREVTVELSSQGFWKTGIRSDVCQHAMMLPVLTHHIRYHQCLMHLDKLIGYTFQDRCLLQLAMTHPSHHLNFGMNPDHARNSLSNCGIRQPKYGDRKVHHMHMRKKGINTLINIMSRLGQDDPTPSRINHNERLEFLGDAVVEFLTSVHLYYLFPSLEEGGLATYRTAIVQNQHLAMLAKKLELDRFMLYAHGPDLCRESDLRHAMANCFEALIGAVYLEGSLEEAKQLFGRLLFNDPDLREVWLNYPLHPLQLQEPNTDRQLIETSPVLQKLTEFEEAIGVIFTHVRLLARAFTLRTVGFNHLTLGHNQRMEFLGDSIMQLVATEYLFIHFPDHHEGHLTLLRSSLVNNRTQAKVAEELGMQEYAITNDKTKRPVALRTKTLADLLESFIAALYIDKDLEYVHTFMNVCFFPRLKEFILNQDWNDPKSQLQQCCLTLRTEGKEPDIPLYKTLQTVGPSHARTYTVAVYFKGERIGCGKGPSIQQAEMGAAMDALEKYNFPQMAHQKRFIERKYRQELKEMRWEREHQEREPEEAEDIKK
With B1 the binding [1] was “binds”, the binding [2] was “binds” and the binding [3] was “no binding”. The binding [4] was “no binding”.
